Data as given in PubChem BioAssay AID1508588 (Peter MacCallum Cancer Centre, 2020)
Test: 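Which gene losses make BRAF-mutant melanoma cells more responsive to vemurafenib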 (primary screen). Cell system: human WM266.4 melanoma cells (BRAF V600 mutant). Reagents: siRNA pool against human genes, 40 nM. Duration: 96 h from transfection to read-out. Treatment: vemurafenib 300 nM (about IC25), added 48 h after transfection, for 48 h; comparison arm got DMSO vehicle only. Measurement: 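Cell gain (DAPI nuclei at end minus before drug, mean of two replicates) and medium lactate by absorbance per cell, both as ratio to non-targeting siRNA, also grouped into fold-change classes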. Scale: cell gain with vemurafenib: higher = more cell gain than with non-targeting siRNA; lactate per cell with vemurafenib: higher = more lactate made per cell. Active means: 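Enhancement is called by pairing each knock-down's vehicle-arm and drug-arm fold-change classes for viability or glycolysis; which class combinations qualify is not given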. Meaning of the calls: active = enhances vemurafenib effect; inactive = no enhancement seen.
Shown is an unselected part of about 18,000 reagents. In the full data, 790 (4.4%) got an active call. 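Calls rest on a combination of fold-change classes in drug and vehicle arms, not all shown here.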 Some reagents were tested in more than one well and are listed for each.

| gene knocked down | cell gain with vemurafenib | lactate per cell with vemurafenib | Call |
| --- | --- | --- | --- |
| PHTF2 (putative homeodomain transcription factor 2) | 0.39 | 0.24 | inactive |
| DYNLT1 (dynein light chain Tctex-type 1) | 0.64 | 1.47 | inactive |
| C1D (C1D nuclear receptor corepressor) | 0.3 | 0.97 | inactive |
| SLC35D1 | 1 | 1.16 | inactive |
| TNC (tenascin C) | -0.1 | 2.02 | inactive |
| B3GNT9 | 0.67 | 0.52 | inactive |
| ADGRE3 (adhesion G protein-coupled receptor E3) | 0.59 | 0.82 | inactive |
| INCENP (inner centromere protein) | -0.05 | 4.64 | inactive |
| DDIT4 (DNA damage inducible transcript 4) | 0.65 | 0.83 | inactive |
| SLC25A18 | 0.62 | 1.43 | inactive |
| PHF6 (PHD finger protein 6) | 1.16 | 0.73 | inactive |
| GUK1 (guanylate kinase 1) | 0.37 | 0.4 | inactive |
| APBA1 (amyloid beta precursor protein binding family A member 1) | 0.79 | 1.18 | inactive |
| GNG3 (G protein subunit gamma 3) | 0.89 | 0.56 | inactive |
| NDST3 (N-deacetylase and N-sulfotransferase 3) | 0.17 | 0.7 | active |
| FAAP24 (FA core complex associated protein 24) | 0.94 | 0.76 | inactive |
| GARIN3 (golgi associated RAB2 interactor family member 3) | 0.74 | 0.75 | inactive |
| NRN1L (neuritin 1 like) | 0.49 | 1.21 | inactive |
| ABCA3 (ATP binding cassette subfamily A member 3) | 0.27 | 1.12 | inactive |
| OR5AU1 (olfactory receptor family 5 subfamily AU member 1) | 0.36 | 2.36 | inactive |
| OR1L6 (olfactory receptor family 1 subfamily L member 6) | 0.28 | 0.32 | inactive |
| GLT1D1 (glycosyltransferase 1 domain containing 1) | 1.16 | 0.6 | inactive |
| RUSC1-AS1 (RUSC1 antisense RNA 1) | 0.84 | 0.74 | inactive |
| IL38 (interleukin 38) | 0.5 | 0.5 | inactive |
| OR10A7 (olfactory receptor family 10 subfamily A member 7) | 0.66 | 1.54 | inactive |
| SLC1A2 | 1.03 | 0.94 | inactive |
| IL13RA2 (interleukin 13 receptor subunit alpha 2) | 0.49 | 1.72 | inactive |
| FN3K (fructosamine 3 kinase) | 0.79 | 0.97 | inactive |
| SPZ1 (spermatogenic leucine zipper 1) | 0.66 | 1.94 | inactive |
| SMAP1 (small ArfGAP 1) | 0.52 | 0.9 | inactive |
| EVI5L (ecotropic viral integration site 5 like) | 0.89 | 0.39 | inactive |
| CASTOR3P (CASTOR family member 3, pseudogene) | 0.7 | 0.91 | inactive |
| KPRP (keratinocyte proline rich protein) | 0.02 | 1.47 | inactive |
| BDKRB2 (bradykinin receptor B2) | 0.84 | 0.98 | inactive |
| MYCBP2 (MYC binding protein 2) | 1.02 | 0.64 | inactive |
| OR6T1 (olfactory receptor family 6 subfamily T member 1) | 0.44 | 1.25 | inactive |
| CT47A7 (cancer/testis antigen family 47 member A7) | 0.87 | 0.6 | inactive |
| NCAPH2 (non-SMC condensin II complex subunit H2) | 0.24 | 1.9 | inactive |
| DACH2 (dachshund family transcription factor 2) | 0.65 | 1.12 | inactive |
| OSCAR (osteoclast associated Ig-like receptor) | 0.51 | 0.32 | inactive |
| KAAG1 (kidney associated DCDC2 antisense RNA 1) | 0.18 | 0.72 | inactive |
| H2AC11 (H2A clustered histone 11) | 0.83 | 0.59 | inactive |
| H2AC13 (H2A clustered histone 13) | 0.27 | 0.82 | inactive |
| IL36B (interleukin 36 beta) | 0.76 | 1.32 | inactive |
| KRTAP5-9 (keratin associated protein 5-9) | 0.94 | 0.93 | inactive |
| ECE2 (endothelin converting enzyme 2) | 0.7 | 0.76 | inactive |
| ECE2 (endothelin converting enzyme 2) | 0.79 | 0.91 | inactive |
| ETFDH (electron transfer flavoprotein dehydrogenase) | 0.74 | 0.53 | active |
| DICER1 (dicer 1, ribonuclease III) | 0.38 | 0.74 | inactive |
| ZNF804A (zinc finger protein 804A) | 0.66 | 0.55 | inactive |
| MAFF (MAF bZIP transcription factor F) | 0.78 | 0.9 | inactive |
| CLLU1-AS1 (CLLU1 antisense RNA 1) | 0.52 | 1.48 | inactive |
| EIF2AK4 (eukaryotic translation initiation factor 2 alpha kinase 4) | 0.91 | 1.18 | inactive |
| COPZ1 (coat protein complex I subunit zeta 1) | 0.34 | 1.18 | inactive |
| TATDN1 (TatD DNase domain containing 1) | 0.25 | 0.79 | inactive |
| RBM22 (RNA binding motif protein 22) | 0.36 | 0.49 | inactive |
| EEF2 (eukaryotic translation elongation factor 2) | 0.62 | 0.28 | inactive |
| CRB2 (crumbs cell polarity complex component 2) | 0.46 | 1.93 | inactive |
| TAS2R43 (taste 2 receptor member 43) | 0.42 | 0.77 | inactive |
| DPY19L2 (dpy-19 like 2) | 0.51 | 1.36 | inactive |
| IBSP (integrin binding sialoprotein) | 0.02 | 1.58 | inactive |
| CALCOCO2 (calcium binding and coiled-coil domain 2) | 0.97 | 0.85 | inactive |
| LAPTM4B (lysosomal protein transmembrane 4 beta) | 0.8 | 0.84 | inactive |
| OR5P3 (olfactory receptor family 5 subfamily P member 3) | 0.65 | 0.64 | inactive |
| PRR35 (proline rich 35) | 0.66 | 1.71 | inactive |
| EMC4 (ER membrane protein complex subunit 4) | 0.5 | 0.92 | inactive |
| ZNF76 (zinc finger protein 76) | -0.19 | 2.93 | inactive |
| VNN3P (vanin 3, pseudogene) | 0.41 | 0.94 | inactive |
| FN1 (fibronectin 1) | 0.83 | 0.94 | inactive |
| ANKRD1 (ankyrin repeat domain 1) | 0.13 | 2.16 | inactive |
| EXOC8 (exocyst complex component 8) | 1.21 | 0.88 | inactive |
| SLCO5A1 | 0.41 | 0.78 | inactive |
| CHRFAM7A (CHRNA7 (exons 5-10) and FAM7A (exons A-E) fusion) | 0.93 | 0.58 | inactive |
| AGPAT4 (1-acylglycerol-3-phosphate O-acyltransferase 4) | 0.44 | 1.06 | inactive |
| NPC1 (NPC intracellular cholesterol transporter 1) | 0.79 | 0.77 | inactive |
| TMEM266 (transmembrane protein 266) | 0.78 | 0.92 | inactive |
| KCNK5 (potassium two pore domain channel subfamily K member 5) | 1.02 | 1.34 | inactive |
| SIX5 (SIX homeobox 5) | 0.35 | 0.39 | inactive |
| SMPX (small muscle protein X-linked) | 0.66 | 0.8 | inactive |
| RGS9BP (regulator of G protein signaling 9 binding protein) | 0.44 | 0.85 | inactive |
| AKR1B10 (aldo-keto reductase family 1 member B10) | 0.62 | 0.92 | inactive |
| XKR5 (XK related 5) | 1.07 | 0.6 | inactive |
| FCGR2B (Fc gamma receptor IIb) | 0.28 | 1.09 | inactive |
| YKT6 (YKT6 vesicular SNARE protein) | 0.53 | 1.18 | inactive |

An excerpt taken from the entries so far:
| gene knocked down | cell gain with vemurafenib | lactate per cell with vemurafenib | Call |
| --- | --- | --- | --- |
| ECE2 (endothelin converting enzyme 2) | 0.79 | 0.91 | inactive |
| ETFDH (electron transfer flavoprotein dehydrogenase) | 0.74 | 0.53 | active |
| DICER1 (dicer 1, ribonuclease III) | 0.38 | 0.74 | inactive |
| ZNF804A (zinc finger protein 804A) | 0.66 | 0.55 | inactive |
| MAFF (MAF bZIP transcription factor F) | 0.78 | 0.9 | inactive |
| CLLU1-AS1 (CLLU1 antisense RNA 1) | 0.52 | 1.48 | inactive |
| EIF2AK4 (eukaryotic translation initiation factor 2 alpha kinase 4) | 0.91 | 1.18 | inactive |
| COPZ1 (coat protein complex I subunit zeta 1) | 0.34 | 1.18 | inactive |
